Here are results for 38 sequences from paper PMC7862700.

The entries are a selection whose mix differs from that of the whole data set. At the low end of the ranking, values are background and their order means little.

For this experiment, the target named is SPI1 (UniProt P17947). Put plainly: DAPPL (digital affinity profiling via proximity ligation, sequencing). Particulars: 10 mM Tris-HCl pH 7.5, 50 mM NaCl, 1 mM DTT, 4% glycerol, room temperature, 30 min; GST-TFs on glutathione beads, 16-mer random dsDNA library, 0.1% …; high values mean tight binding; double strand, one strand shown; scale: fold enrichment (6-mer frequency, TF over GST control).
Sequence AACGGT had a binding signal of 0.952. The figure for CAGACT is 0.997; for AGTTAC it is 0.996. The figure for GACCGC is 0.881; for ACTGTA it is 1.09. Regarding ATAGGC, the binding signal amounted to 0.957.

On to TTTGCC, for which the binding signal is 1.23.

In turn, GAAGCC returned a binding signal of 0.975. Take GACTGC: the binding signal worked out at 0.911. The value for GAATGA was 0.982; that for CTTGAG was 0.824. Take ACACCC: the binding signal was found to be 0.996. The value for GACTTA was 0.962. The sequence TTCGGG yielded a binding signal of 0.94. Sequence TATGTC registered a binding signal of 1.06.

Sequence CCAGCA came in with a binding signal of 0.924. The value for TAAGGG was 0.978; that for GTGTTA was 0.918.

In the case of ACGTTT, the binding signal was 1.12. The value for TAAGAC was 0.902; that for GATAAC was 0.928; that for CCTCCT was 1.7.

Sequence GCAATA had a binding signal of 0.959. The value for TCCGTC was 1.28.

The sequence GTTCAG came in with a binding signal of 0.965. The figure for CTAGAC is 0.93. The figure for ACAAGG is 0.972. The value for GGAAGA was 1.17.

On to CAACGA, for which the binding signal came to 0.989. The figure for CATCAG is 0.912. On to GACGAC, for which the binding signal stood at 0.976. TAGACA registered a binding signal of 0.986. The figure for AGTTAT is 0.959; for GAGCTC it is 0.846. Take GCGAAT: the binding signal was 0.991. The value for CGAGAT was 0.896. The figure for CGGTTT is 1.44; for GAACTT it is 1.74.
